# According to PubChem BioAssay AID1347423 (Functional Genomics Laboratory (NCATS/FGL), 2020):
# Hit rate of the full screen: of about 52,000 sequences, about 210 (0.4%) were called active.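 Rule for the calls: active = gene whose silencing raises cell survival under the drug, median off-target-corrected z-score across its silencing RNAs 2 or more; inactive = the rest.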 The list shows a part of the results.
# Assay: Resistance to Poly (ADP-Ribose) Polymerase inhibitor: Gene Identification via Genome-wide siRNA Screen
# Conditions: mouse BRCA2 R2336H ES cells, olaparib, CellTiter-Glo viability; hits give high values
# Method in brief: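 Genome-wide siRNA screen (3 siRNAs/gene, 20 nM) in mouse ES cells carrying hypomorphic BRCA2 R2336H; olaparib 500 nM added 48 h post-transfection, CellTiter-Glo viability 72 h later. Normalized to plate-median negative control; MAD z-scores, gene median, seed-adjusted.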
row,Sequence,z-score
1,GGCUGGAUUGUAGAAUUAATT against Vpreb1,inactive: 0.416
2,CGGAUACAAUUUCUGACCGTT against Gm779,inactive: 1.95
3,GGAACUUAUAUCUGCGCCATT against C030038J10Rik,inactive: 0.592
4,CCUACUACGAGAGGAAAACTT against Ak5,inactive: -0.679
5,GCUCAUGUCAGGAGAGAGUTT against 9430098E02Rik,inactive: -1.18
6,GGAUAUUCUUCCAGUCUUUTT against MGC118154,inactive: -1.48
7,GGCGUGACUUGGAAACAUGTT against Itga8,inactive: -0.019
8,GGACAUUGAGUCAAAAAUCTT against Slc19a2,inactive: 0.448
9,GGAAAAGAUGAAAAGUGACTT against Myh11,inactive: 0.385
10,GCCGUAUGGCAGGUAUUUUTT against AI118078,inactive: 1.49
11,GCGACUGUUUAGCUUUUUCTT against 2900002H16Rik,inactive: 0.561
12,AGGACUAGGGAUCCUAAUUTT against Ubl5,inactive: 1.26
13,GCCUGUUCUAGGUGACCUATT against Chd3,inactive: -1.01
14,GGCGAUUAAACUAUACAUUTT against Rrm2,inactive: -3.33
15,GGCUGCCUCGAAAUUACAATT against Lamb3,inactive: -1.79
16,CGUCUUUCCUCACUAGCAATT against Cdc42ep4,inactive: -0.133
17,CCCAAAGAUAGAGCUCUGUTT against Sec61a2,inactive: -1.82
18,GCGGACUCUUUUCAUCAAUTT against BC026370,inactive: 0.523
19,GGAAUAAUAGAGGAAUGAGTT against Bclaf1,inactive: -1.15
20,GGCCAAAAACAAGGAGACCTT against Stk10,inactive: 1.36
21,CGACAAGAGAGCACAGAGATT against Traf3ip1,inactive: -2.74
22,CCUUUCCUUUGUUGAUUUCTT against Olfr887,inactive: 2.27
23,GGUGAAAAUAAUAGAGCGGTT against 4932425I24Rik,inactive: 0.404
24,GGUGUUCCUAUAAAAGUAUTT against Tfb2m,inactive: -1.86
25,GUCUUUCUGUCUUGUCUUGTT against Fbxo21,inactive: 0.0565
26,AAGAGCAUUAGUGCACAGATT against LOC384639,inactive: -1.22
27,CCAGACCUGUGGUAAUCUATT against 2810009O15Rik,inactive: -0.383

row,Sequence,z-score
1,CCUACAUAGCGACAUCCUUTT against Car12,inactive: 0.905
2,GGCAGGCAGAAAGCUUUGUTT against Olfr1054,inactive: -0.0176
3,CGGUCUUUAUUACAUAAUCTT against Ptpro,inactive: 0.452
4,GGUACCGUCAGUUGUCCUATT against Rnf4,inactive: -1.52
5,CUCAGAUAUUCUUUUCCCATT against Olfr142,inactive: 1.13
6,GGAGGGAAAGAUCAUUACATT against Kirrel2,inactive: -0.84
7,GGACAGUUUGGUACCAGUGTT against 2810038K19Rik,inactive: -1.99
8,GGUGCUGGUGGAUGAACUATT against Nags,inactive: 0.523
9,GGAGAUGAUUGACCGGCUATT against Epc1,inactive: -1.24
10,GGAUUGAGUCACUUAUAGATT against Cul4a,inactive: 0.108
11,GGUUUCUUAUCAAACUCCATT against Farp2,inactive: -0.0396
12,GGUGACAAUGACCUUAUAGTT against Adsl,inactive: -1.4
13,GGAACAAAAGAAGAAUACCTT against Pkhd1,inactive: -0.498
14,GGUCCAUACUCCUAAAGAATT against Mpzl1,inactive: -0.617
15,GGUUCUAAUAAAAAUCGGUTT against Pcdhb1,inactive: 0.852
16,GGAUUUCCUGUUCUUUCUATT against Skb1,inactive: -0.419
17,GGAUGUGGUCUGAAUUACCTT against Prkcm,inactive: 0.779
18,GGCAAACUCGGGUAUACACTT against 8030451F13Rik,inactive: 1.56
19,CGUGUGCAAAGAAGCUAAATT against Mdm2,inactive: -1.49
20,UUUACUCUCAUGGUAACCUTT against Olfr798,inactive: -0.421
21,GGUAGUCACUAUCUUAAUCTT against Olfr1101,inactive: 0.0457
22,GGAACAGAAACAAGGUUUUTT against AA407930,inactive: -0.112
23,CGAGAAUAUUCGCCCAACCTT against Erbb3,inactive: -0.303
24,CGCCGUAUUUAGACUAAAATT against Capn11,inactive: -0.14
25,GCUAAUCACCAAAGCUGAGTT against D3Wsu161e,inactive: -0.792
26,GGAGAAUCAUGUGAGCCUGTT against Tph1,inactive: -2.12

# Given bar-delimited: part of the list above.
row | Sequence | z-score
11 | GGUUUCUUAUCAAACUCCATT against Farp2 | inactive: -0.0396
16 | GGAUUUCCUGUUCUUUCUATT against Skb1 | inactive: -0.419

# Looked up above:
# z-score with GGACAGUUUGGUACCAGUGTT against 2810038K19Rik is entered as inactive: -1.99
# z-score with GCUAAUCACCAAAGCUGAGTT against D3Wsu161e is entered as inactive: -0.792
